In article doi:10.1101/2025.06.12.659263:
Results are given in words; binding and its absence hold for the method and conditions named. In cells and extracts the contact can be indirect. Binding calls can cover weak binding; strength is not graded here.

By UniProt entry, the sequences of proteins in these tests, tags left out. Where a name states a change or a piece, a line headed by the entry shows the natural chain unless it says otherwise.
UniProt P23201: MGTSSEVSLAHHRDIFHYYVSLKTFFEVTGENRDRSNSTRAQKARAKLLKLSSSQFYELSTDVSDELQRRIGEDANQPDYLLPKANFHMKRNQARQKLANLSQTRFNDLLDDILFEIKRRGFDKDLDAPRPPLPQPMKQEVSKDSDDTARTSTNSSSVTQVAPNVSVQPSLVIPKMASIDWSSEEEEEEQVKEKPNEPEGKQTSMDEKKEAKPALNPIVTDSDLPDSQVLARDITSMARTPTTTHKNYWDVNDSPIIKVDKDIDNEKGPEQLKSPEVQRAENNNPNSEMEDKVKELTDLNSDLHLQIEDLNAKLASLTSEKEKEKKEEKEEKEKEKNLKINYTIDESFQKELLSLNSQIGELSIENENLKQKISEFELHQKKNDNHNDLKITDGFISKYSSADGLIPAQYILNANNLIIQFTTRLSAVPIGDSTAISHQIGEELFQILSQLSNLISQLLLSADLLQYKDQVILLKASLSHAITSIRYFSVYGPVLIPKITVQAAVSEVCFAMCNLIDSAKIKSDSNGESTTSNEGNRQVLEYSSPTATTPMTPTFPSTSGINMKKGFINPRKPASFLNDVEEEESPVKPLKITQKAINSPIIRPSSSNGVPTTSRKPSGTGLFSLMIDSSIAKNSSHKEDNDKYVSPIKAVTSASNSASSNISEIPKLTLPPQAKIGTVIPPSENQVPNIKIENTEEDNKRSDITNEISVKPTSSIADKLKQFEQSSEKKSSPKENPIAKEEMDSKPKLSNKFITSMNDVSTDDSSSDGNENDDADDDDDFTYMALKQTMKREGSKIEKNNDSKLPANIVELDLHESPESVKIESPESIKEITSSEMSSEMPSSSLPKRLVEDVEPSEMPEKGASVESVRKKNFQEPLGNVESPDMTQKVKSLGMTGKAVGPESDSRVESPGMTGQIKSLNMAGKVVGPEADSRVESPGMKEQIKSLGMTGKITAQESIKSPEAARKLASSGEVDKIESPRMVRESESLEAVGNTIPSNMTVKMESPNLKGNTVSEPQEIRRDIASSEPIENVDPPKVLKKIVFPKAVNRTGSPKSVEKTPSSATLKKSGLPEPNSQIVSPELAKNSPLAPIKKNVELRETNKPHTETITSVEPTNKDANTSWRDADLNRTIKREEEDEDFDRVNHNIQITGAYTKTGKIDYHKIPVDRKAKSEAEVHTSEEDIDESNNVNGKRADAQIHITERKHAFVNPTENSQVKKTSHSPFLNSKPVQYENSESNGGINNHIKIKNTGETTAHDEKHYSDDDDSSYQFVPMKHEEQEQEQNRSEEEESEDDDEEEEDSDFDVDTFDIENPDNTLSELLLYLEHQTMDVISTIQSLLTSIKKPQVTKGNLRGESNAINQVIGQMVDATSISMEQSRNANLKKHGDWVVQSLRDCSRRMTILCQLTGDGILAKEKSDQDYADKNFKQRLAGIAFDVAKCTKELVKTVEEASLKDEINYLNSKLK
UniProt P06784: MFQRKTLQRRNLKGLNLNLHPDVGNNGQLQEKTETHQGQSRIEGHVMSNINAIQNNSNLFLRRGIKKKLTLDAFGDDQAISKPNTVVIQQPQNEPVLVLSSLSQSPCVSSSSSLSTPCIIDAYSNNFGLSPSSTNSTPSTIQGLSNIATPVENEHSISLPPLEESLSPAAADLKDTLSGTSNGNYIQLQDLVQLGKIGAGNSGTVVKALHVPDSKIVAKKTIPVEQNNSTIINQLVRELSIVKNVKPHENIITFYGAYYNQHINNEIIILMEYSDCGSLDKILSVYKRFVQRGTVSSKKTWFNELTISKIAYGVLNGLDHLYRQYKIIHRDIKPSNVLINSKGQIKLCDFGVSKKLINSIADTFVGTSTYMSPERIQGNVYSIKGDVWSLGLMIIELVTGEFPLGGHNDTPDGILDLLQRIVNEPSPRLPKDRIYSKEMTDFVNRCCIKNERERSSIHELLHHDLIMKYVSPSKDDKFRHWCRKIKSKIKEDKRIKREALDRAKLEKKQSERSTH

Molecular target: Spa2CRU (S. cerevisiae) (UniProt P23201)
Experiment: split reporter

Substance: Ste7_(105-162), the N-terminal extension of Ste7_(105-162)-Spa2CRU (from UniProt P06784) (domain or fragment)
- binding: binds
